Reference: the supplement of paper PMC12823440, “Inhibitors supercharge kinase turnover through native proteolytic circuits” (Nature, 2025)
Where a name gives a salt, the structure may show the parent alone. The list shows a part of the results. The calls rarely recur for the same compound in another form.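 Kinases, fused to nanoluciferase, were expressed in K562 cells; luminescence was measured every 4 h from 2 to 18 h as percent of control (DMSO = 100%, positive control = 0%). A time point is decreased if signal falls significantly (2 sigma). Hits were called by the authors by a rule that is not shown; the count of time points alone does not decide it.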

Chains of the proteins cited; added tags and fusions are not shown.
UniProt Q01974, whole entry: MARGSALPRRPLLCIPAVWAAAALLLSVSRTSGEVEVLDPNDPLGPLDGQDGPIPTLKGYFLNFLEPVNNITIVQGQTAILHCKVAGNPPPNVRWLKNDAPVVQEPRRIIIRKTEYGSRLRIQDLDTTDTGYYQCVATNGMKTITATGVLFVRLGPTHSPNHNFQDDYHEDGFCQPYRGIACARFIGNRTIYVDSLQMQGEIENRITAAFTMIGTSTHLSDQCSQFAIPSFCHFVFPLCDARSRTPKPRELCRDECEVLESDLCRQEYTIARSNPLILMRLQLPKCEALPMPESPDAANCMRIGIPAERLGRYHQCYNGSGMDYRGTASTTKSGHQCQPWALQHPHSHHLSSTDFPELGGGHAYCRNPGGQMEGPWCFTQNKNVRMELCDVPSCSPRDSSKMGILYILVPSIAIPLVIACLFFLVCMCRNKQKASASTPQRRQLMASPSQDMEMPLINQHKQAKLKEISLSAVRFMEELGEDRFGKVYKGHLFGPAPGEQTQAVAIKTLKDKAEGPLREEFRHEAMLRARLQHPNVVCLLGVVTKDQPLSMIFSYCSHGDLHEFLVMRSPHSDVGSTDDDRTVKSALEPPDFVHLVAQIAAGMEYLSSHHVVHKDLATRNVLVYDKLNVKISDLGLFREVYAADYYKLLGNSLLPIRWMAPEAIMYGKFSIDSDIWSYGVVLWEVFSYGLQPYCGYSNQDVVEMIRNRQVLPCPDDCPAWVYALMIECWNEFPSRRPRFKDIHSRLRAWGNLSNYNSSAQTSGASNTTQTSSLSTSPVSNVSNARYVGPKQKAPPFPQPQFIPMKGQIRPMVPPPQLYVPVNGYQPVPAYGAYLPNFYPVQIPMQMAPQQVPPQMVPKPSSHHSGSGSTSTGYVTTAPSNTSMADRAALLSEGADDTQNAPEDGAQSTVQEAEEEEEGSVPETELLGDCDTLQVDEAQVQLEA

Target: RIPK2 (UniProt O43353)
Test: kinase-Nluc reporter destabilization hit call (1 = scored as downregulated) (binary); higher = compound decreases kinase abundance
Settings: K562; 2-18 h

kinase-Nluc reporter destabilization hit call, inactive:
CC#CC(=O)N1CC[C@@H](n2c(=O)n(-c3ccc(Oc4ccccc4)cc3)c3c(N)ncnc32)C1 [Tirabrutinib] (10 µM) 0
C[C@@]1(c2ncncc2F)NC(=O)c2cc(-c3cn[nH]c3)ccc21 (10 µM) 0
COc1ccc(Cl)c(Nc2nc3ccccc3nc2NS(=O)(=O)c2cccc(NC(=O)C(C)(C)N)c2)c1 [Pilaralisib] (10 µM) 0
O=Nc1c(-c2c(O)[nH]c3ccc(I)cc23)[nH]c2ccccc12 [5-Iodo-indirubin-3'-monoxime] (10 µM) 0
COc1cc2nccc(Oc3ccc(NC(=O)NC4CC4)c(Cl)c3)c2cc1C(N)=O [Lenvatinib] (10 µM) 0
C[C@]1(O)CCN(c2nc(N3C[C@H](O)[C@@H](O)C3)cc(C(F)(F)F)c2C#N)C1 (10 µM) 0
Cn1cnc(Cn2ccc3ccc(CNCc4[nH]c5ccccc5c4[C@H]4NC(=O)c5ccc(O)cc54)cc32)c1 (10 µM) 0

Molecules shown so far with an aryl methoxy group:
kinase-Nluc reporter destabilization hit call, inactive:
COc1ccc(Cl)c(Nc2nc3ccccc3nc2NS(=O)(=O)c2cccc(NC(=O)C(C)(C)N)c2)c1 [Pilaralisib] (10 µM) 0
COc1cc2nccc(Oc3ccc(NC(=O)NC4CC4)c(Cl)c3)c2cc1C(N)=O [Lenvatinib] (10 µM) 0

Target: ROR2 (UniProt Q01974)
Test: as above
Settings: K562; 2-18 h

kinase-Nluc reporter destabilization hit call, inactive:
O=C(CSC1=NCCN1)NC1CCCCCC1 [ICCB-19 (hydrochloride)] (2.5 µM) 0
CCCS(=O)(=O)Nc1ccc(F)c(C(=O)c2c[nH]c3ncc(-c4ccc(Cl)cc4)cc23)c1F [Vemurafenib] (10 µM) 0
Cc1ccc(OCCSc2ncccn2)c(Br)c1 [ZLN024 (hydrochloride)] (10 µM) 0
Nc1ncnc2c1c(-c1ccc(Oc3ccccc3)cc1)nn2C1CCCC1 (2.5 µM) 0
COc1ncc(Cl)cc1S(=O)(=O)Nc1ccc(F)c(C#Cc2cnc(N)nc2)c1F (2.5 µM) 0
Cc1ccc(CNc2ncnc3ccc(-c4ccc(CO)o4)cc23)o1 (10 µM) 0
NC(=O)c1nnc(N[C@@H]2CCCC[C@@H]2N)nc1Nc1cccc2cc[nH]c12 (10 µM) 0
CNc1nc(Nc2ccc(C(=O)N3CCOCC3)cc2OC)nc2[nH]cc(Cl)c12 (2.5 µM) 0
CCNc1nc(Nc2cc(F)c(C(=O)N3CCOCC3)cc2OC)ncc1C(F)(F)F [GNE-7915 (tosylate)] (10 µM) 0
CCN1CCN(Cc2ccc(Nc3ncc(F)c(-c4cc(F)c5nc(C)n(C(C)C)c5c4)n3)nc2)CC1 [Abemaciclib] (2 µM) 0
COCCNc1nc2ccc(C#CC3(O)CCCCC3)cc2n1-c1ccnc(N)n1 (10 µM) 0
OCCn1cc(-c2ccc3c(c2)CC/C3=N\O)c(-c2ccncc2)n1 (10 µM) 0
O=C1N[C@@H](Cc2c[nH]c3ccccc23)C(=O)N2CCC[C@@H]12 [Brevianamide F] (10 µM) 0
Cn1nccc1Nc1nccc(-c2ccn([C@H](CO)c3ccc(Cl)c(F)c3)c(=O)c2)n1 [Ravoxertinib] (10 µM) 0
O=C(NCCN1CCOCC1)c1cc2c(Oc3ccc(NC(=O)C4(C(=O)Nc5ccc(F)cc5)CC4)cc3)ccnc2[nH]1 [Tyrosine kinase inhibitor] (10 µM) 0
COc1cc2c(N3CCN(C(=O)Nc4ccc(OC(C)C)cc4)CC3)ncnc2cc1OCCCN1CCCCC1 [Tandutinib (hydrochloride)] (10 µM) 0
COc1cc(/C=C/C(=O)NCC(O)c2ccc(O)cc2)ccc1O (stereo not given) [N-Feruloyloctopamine] (2.5 µM) 0
COc1cc2nccc(Oc3ccc(NC(=O)NC4CC4)c(Cl)c3)c2cc1C(N)=O [Lenvatinib (mesylate)] (10 µM) 0
CN1CCN(c2cccc(Nc3nc4c(-c5ccc(S(C)(=O)=O)cc5)cccn4n3)c2)CC1 (10 µM) 0
C=C(CC[C@@H](C(=O)O)[C@H]1[C@H](O)C[C@@]2(C)C3=C(CC[C@]12C)[C@@]1(C)CC[C@H](OC(C)=O)C(C)(C)[C@@H]1CC3)C(C)C [Pachymic acid] (10 µM) 0
O=c1[nH]c(=O)n([C@@H]2O[C@H](CO)[C@@H](O)[C@@H]2O)cc1/C=C/Br [Sorivudine] (10 µM) 0
NC(=O)c1ccc(-c2nc(-c3ccc4c(c3)OCCO4)c(-c3ccccn3)[nH]2)cc1 (10 µM) 0
CC#CC(=O)Nc1ccc2ncnc(Nc3cccc(Br)c3)c2c1 (10 µM) 0
